{"sequences": {"note": "Chains of the proteins cited; added tags and fusions are not shown.", "UniProt P18054, whole entry, looked up": "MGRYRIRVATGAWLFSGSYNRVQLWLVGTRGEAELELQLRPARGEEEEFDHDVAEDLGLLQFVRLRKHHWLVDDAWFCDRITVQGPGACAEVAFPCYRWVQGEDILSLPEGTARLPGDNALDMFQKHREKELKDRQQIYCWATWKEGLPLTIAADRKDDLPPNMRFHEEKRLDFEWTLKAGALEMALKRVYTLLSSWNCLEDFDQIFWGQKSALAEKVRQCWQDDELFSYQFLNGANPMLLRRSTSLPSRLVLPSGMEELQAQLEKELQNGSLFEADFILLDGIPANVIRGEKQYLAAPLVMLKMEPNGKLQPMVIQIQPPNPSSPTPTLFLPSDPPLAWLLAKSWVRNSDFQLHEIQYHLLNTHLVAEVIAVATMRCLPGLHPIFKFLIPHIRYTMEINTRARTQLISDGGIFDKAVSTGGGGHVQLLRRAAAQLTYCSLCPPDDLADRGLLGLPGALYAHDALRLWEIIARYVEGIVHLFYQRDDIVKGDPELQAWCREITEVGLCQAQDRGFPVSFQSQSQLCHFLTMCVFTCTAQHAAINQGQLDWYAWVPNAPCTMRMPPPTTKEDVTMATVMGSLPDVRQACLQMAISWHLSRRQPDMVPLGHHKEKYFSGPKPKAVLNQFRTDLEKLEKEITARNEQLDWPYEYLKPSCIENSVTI"}, "source": "PubChem BioAssay AID1671190", "about": "(National Center for Advancing Translational Sciences (NCATS), 2021)", "note": "The whole screen tested about 580,000 compounds, of which about 6,100 (1.1%) were called active. Inconclusive means that the source gave no clear call. Such entries were picked first, then a sample of the others. Calls follow the shape of the dose curve; as a rule, active = well fitted inhibition curve with a large enough effect; inconclusive = small, poorly fitted or top-dose-only effect, or another doubt; inactive = no such curve, though single readings can be large or run the other way. Potencies of inconclusive entries are doubtful fits and often do not repeat. % is scaled to controls: 0 for no effect and ±100 for the full control effect; potency is read from the fitted curve at half-maximal effect.", "data": [{"molecular_target": "Polyunsaturated fatty acid lipoxygenase ALOX12 (Homo sapiens) (UniProt P18054)", "assay": "Primary qHTS assay for inhibitors of human arachidonate 12S-lipoxygenase (ALOX12): Round 2", "details": "purified 12hLO, xylenol orange hydroperoxide absorbance; activity change, negative = inhibition: at 108 µM (top of the series) unless noted", "outline": "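Purified human 12hLO at 150 nM in 25 mM Hepes, 0.01% Triton X-100, pH 7.0, preincubated 15 min at room temperature with compound. Reaction started with 40 uM arachidonic acid, 30 min at room temperature. Hydroperoxide measured by Fe-xylenol orange, 573/405 nm absorbance ratio.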", "values": [{"molecule": "Cc1ccc(C)c(NC(=O)COC(=O)c2ccc3ccccc3n2)c1", "Potency": "inconclusive: 50.1 µM [inhibitor, single point]"}, {"molecule": "CCN1CCN(S(=O)(=O)c2ccc(Cl)c(C(=O)N(CCc3ccccc3)Cc3ccccc3)c2)CC1", "Potency": "inconclusive: 39.8 µM [inhibitor, partial curve]"}, {"molecule": "CCc1nc2ccccc2n1CC(O)COCC1CC=CCC1", "note": "(configuration not stated)", "activity change, negative = inhibition": "inactive: -17.7%"}, {"molecule": "CC(=O)Nc1ccc(-c2cc(C(=O)O)c3ccccc3n2)cc1", "Potency": "inconclusive: 44.7 µM [inhibitor, partial curve, poor fit]"}, {"molecule": "NC1=NC[C@H](Cc2ccccc2)N1CCCCC1CCCCC1", "Potency": "inconclusive: 70.8 µM [inhibitor, partial curve, poor fit]"}, {"molecule": "COc1ccc(C)cc1S(=O)(=O)Nc1ccc(Nc2nc(C)cc(N3CCOCC3)n2)cc1", "Potency": "inconclusive: 100 µM [inhibitor, single point]"}, {"molecule": "CN(c1nc2c(c(=O)n(C)c(=O)n2C)n1CC(=O)c1ccccc1)C1CCCCC1", "activity change, negative = inhibition": "inactive: -8.7%"}, {"molecule": "CCOc1ccc(CCNC(=O)CCC(=O)Nc2ccc3nc(N4CCN(C)CC4)cc(C)c3c2)cc1OCC", "Potency": "inconclusive: 4.47 µM [inhibitor, full curve, poor fit]"}, {"molecule": "O=C(NCc1ccncc1)[C@@H]1CCCN1C(=O)[C@@H]1CCCN1C(=O)c1c(F)cccc1F", "Potency": "inconclusive: 89.1 µM [inhibitor, partial curve, poor fit]"}, {"molecule": "COC(=O)C1CN(Cc2cn(Cc3ccc(C)cc3)nn2)CCS(=O)(=O)N1Cc1ccc(C)cc1", "note": "(configuration not stated)", "Potency": "active: 15.8 µM"}, {"molecule": "O=c1[nH]c2ccc(NC(=S)NCc3ccccc3)cc2[nH]1", "Potency": "inconclusive: 22.4 µM [inhibitor, partial curve, poor fit]"}, {"molecule": "S=C(NCCC(c1ccccc1)c1ccccc1)Nc1ccccc1Cl", "Potency": "inconclusive: 31.6 µM [inhibitor, single point]"}, {"molecule": "NNc1ncnc2scc(-c3ccc(Cl)cc3)c12", "Potency": "inconclusive: 50.1 µM [inhibitor, partial curve, poor fit]"}, {"molecule": "COCC1CN(C(=O)c2nccc3ccccc23)CC12CCNCC2", "note": "(configuration not stated)", "Potency": "inconclusive: 39.8 µM [inhibitor, single point]"}, {"molecule": "S=C(NCCC12CC3CC(CC(C3)C1)C2)Nc1ccc(Cl)cc1", "Potency": "inconclusive: 31.6 µM [inhibitor, partial curve, poor fit]"}, {"molecule": "Cc1ccc(C(=O)c2cn[nH]c2-c2cc(Cl)ccc2O)cc1", "Potency": "inconclusive: 35.5 µM [inhibitor, partial curve]"}, {"molecule": "O=C(CC1Nc2cccc3cccc(c23)NC1=O)Nc1ccccc1", "note": "(configuration not stated)", "Potency": "inconclusive: 17.8 µM [inhibitor, full curve]"}, {"molecule": "COc1ccc2c(c1)Cc1sc(NC(=O)c3ccccc3Cl)nc1-2", "Potency": "inconclusive: 39.8 µM [inhibitor, partial curve, poor fit]"}, {"molecule": "Cc1ccccc1NC(=O)c1c(NC(=O)c2ccco2)sc2c1CCC(C(C)(C)C)C2", "note": "(configuration not stated)", "Potency": "inconclusive: 112 µM [inhibitor, partial curve, poor fit]"}, {"molecule": "COc1cccc(-c2ncc3ccccc3c2COC(=O)N2CCOCC2)c1", "activity change, negative = inhibition": "inactive: 3.73%"}, {"molecule": "O=c1cnnc(N/N=C/c2c[nH]c3ccccc23)[nH]1", "activity change, negative = inhibition": "inactive: 0.237%"}, {"molecule": "O=C(Nc1ccccc1O)c1ccc([N+](=O)[O-])cc1", "Potency": "inconclusive: 126 µM [inhibitor, single point]"}, {"molecule": "COc1ccc(NC(=O)C2CCCCC(=O)N2)cc1F", "note": "(configuration not stated)", "activity change, negative = inhibition": "inactive: 0.815%"}, {"molecule": "COC(=O)c1cc2c(c3c4ccccc4n(S(=O)(=O)c4cccc(C)c4)c13)C(=O)N(Cc1ccccc1OC)C2", "Potency": "inconclusive: 12.6 µM [inhibitor, full curve, poor fit]"}, {"molecule": "CCCN1CCC(NC(=O)CC23CC4CC(CC(C4)C2)C3)CC1", "activity change, negative = inhibition": "inactive: -1.87%"}, {"molecule": "CNCc1ccc(-c2ccc(Cl)cc2)o1", "activity change, negative = inhibition": "inactive: -27%"}, {"molecule": "CCCCCCCCN1C(=O)[C@H](CC(=O)NCc2cccc(C(F)(F)F)c2)C[C@@]2(C(=O)OC)CCCCC=C12", "activity change, negative = inhibition": "inactive: -1.32%"}, {"molecule": "COc1ccc(CN[C@H](C)c2onc(-c3ccc(F)cc3)c2C(=O)O)cc1", "Potency": "inconclusive: 25.1 µM [inhibitor, full curve, poor fit]"}, {"molecule": "Cc1ccc2cc(CCNC(=O)Cc3cccs3)c(=O)[nH]c2c1", "Potency": "inconclusive: 35.5 µM [inhibitor, partial curve, poor fit]"}, {"molecule": "COc1ccc(N(CC(=O)NCC2CCCO2)S(=O)(=O)c2ccc(C)cc2)cc1OC", "note": "(configuration not stated)", "activity change, negative = inhibition": "inconclusive: -30.4% [inhibitor]"}, {"molecule": "CCOc1ccc(CCN2C(=O)C(=O)N([C@@H](Cc3ccc(O)cc3)CN3CCC[C@H]3CN3C(=O)C(=O)NC[C@@H]3Cc3ccccc3)C[C@@H]2Cc2ccc(O)cc2)cc1", "Potency": "inconclusive: 100 µM [inhibitor, partial curve, poor fit]"}, {"molecule": "CCCc1ccc(S(=O)(=O)Nc2cc(C(=O)N(C)CC(=O)NC)ccc2N2CCNCC2)cc1", "Potency": "inconclusive: 3.55 µM [inhibitor, full curve, poor fit]"}, {"molecule": "CC(C)OC(=O)C1=C(N)Oc2c(oc(CO)cc2=O)C1c1ccc(F)cc1F", "note": "(configuration not stated)", "Potency": "inconclusive: 44.7 µM [inhibitor, partial curve, poor fit]"}, {"molecule": "CCC(=O)N1CCc2cc(S(=O)(=O)CCC(=O)Nc3cccc(F)c3)ccc21", "Potency": "inconclusive: 17.8 µM [inhibitor, single point]"}, {"molecule": "CCCNC(=O)c1cc(-c2ccccc2OC(C)C)nc2ccccc12", "activity change, negative = inhibition": "inactive: 15.6%"}, {"molecule": "Cc1ccc(NC(=O)C2=NNC(=O)CC2)cc1F", "Potency": "inconclusive: 44.7 µM [inhibitor, partial curve, poor fit]"}, {"molecule": "COC(=O)C1=C(C)N(Cc2cccnc2)C(=O)/C1=C\\c1cccs1", "Potency": "inconclusive: 39.8 µM [inhibitor, partial curve, poor fit]"}, {"molecule": "Cc1ccccc1CNC(=O)c1cccc(NC(=O)N2CCSc3ncccc32)c1", "activity change, negative = inhibition": "inactive: -26.1%"}, {"molecule": "O=C(c1cccc(OC2CN(CC3CC=CCC3)C2)c1)N1CCOCC1", "note": "(configuration not stated)", "activity change, negative = inhibition": "inactive: 28%"}, {"molecule": "Cc1ccccc1NC(=O)c1sc2nc3c(cc2c1N)CN(C(C)C)CC3", "Potency": "inconclusive: 8.91 µM [inhibitor, full curve]"}, {"molecule": "CCOc1ccc(C(=O)N2CCN(c3cccc(C)c3C)CC2)cc1", "activity change, negative = inhibition": "inactive: -1.21%"}, {"molecule": "CC(C)C(=O)N/N=C/c1ccc(Br)cc1", "activity change, negative = inhibition": "inactive: -3.52%"}, {"molecule": "COc1ccc2nc(/C(C#N)=C/c3ccccc3Sc3ccccc3)[nH]c2c1", "Potency": "inconclusive: 5.62 µM [inhibitor, full curve, poor fit]"}, {"molecule": "CCc1cc[n+](C(C(=S)Nc2cccc(C)c2)=C([O-])c2ccc(C)c([N+](=O)[O-])c2)cc1", "activity change, negative = inhibition": "inactive: -24.3%"}, {"molecule": "O=Cc1ccc(Sc2ccccc2)o1", "Potency": "inconclusive: 7.08 µM [inhibitor, full curve]"}, {"molecule": "COc1ccc2[nH]c3c(c2c1)CCN1C(=O)C(CC(=O)NCCC2=CCCCC2)C[C@H](C(=O)N2CCCCC2)[C@@]31CCc1ccccc1", "note": "(some centres not stated)", "Potency": "inconclusive: 89.1 µM [inhibitor, partial curve, poor fit]"}, {"molecule": "OCc1cccc(-c2ccc3ncc(Nc4ccnc(N5CCOCC5)c4)n3n2)c1", "Potency": "inconclusive: 4.47 µM [inhibitor, full curve]"}, {"molecule": "O=S(=O)(CCN1CCN(c2cnccn2)CC1)c1ccccc1", "Potency": "inconclusive: 89.1 µM [inhibitor, single point]"}, {"molecule": "CC(C)C(c1nnnn1C1CCCC1)N1CCCCC1", "note": "(configuration not stated)", "Potency": "inconclusive: 35.5 µM [inhibitor, single point]"}, {"molecule": "CSc1ccccc1NC(=O)CC(C)C", "activity change, negative = inhibition": "inactive: -6.43%"}, {"molecule": "Cc1ccc(-n2nc(C)c3c2OC(N)=C(C#N)C3c2ccoc2)cc1", "note": "(configuration not stated)", "Potency": "inconclusive: 17.8 µM [inhibitor, full curve, poor fit]"}, {"molecule": "CC1Cc2ccccc2N1CC(=O)Nc1ccc2c(c1)OCO2", "note": "(configuration not stated)", "Potency": "inconclusive: 11.2 µM [inhibitor, partial curve, poor fit]"}, {"molecule": "Cc1ccc([N+](=O)[O-])cc1S(=O)(=O)Nc1cccc(S(=O)(=O)Nc2ccccc2C(=O)O)c1", "Potency": "inconclusive: 17.8 µM [inhibitor, partial curve, poor fit]"}, {"molecule": "Clc1ccc(Oc2nc(Oc3ccc(Cl)cc3)nc(N3CCOCC3)n2)cc1", "activity change, negative = inhibition": "inactive: 0.76%"}, {"molecule": "CC(=O)NC(Cc1c[nH]c2ccccc12)C(=O)NCC1(c2ccccc2)CC1", "note": "(configuration not stated)", "activity change, negative = inhibition": "inactive: -6.85%"}, {"molecule": "CNc1nc2cnc(Nc3ccccn3)cc2n1-c1cc(OC)c(OC)c(OC)c1", "activity change, negative = inhibition": "inactive: 10.2%"}, {"molecule": "O=C(COc1ccc(Cl)cc1Cl)NNC(=S)NCc1ccco1", "Potency": "active: 44.7 µM"}, {"molecule": "CCc1noc(-c2cn(C3CCN(C(=O)COc4ccc(F)cc4)C3)nn2)n1", "note": "(configuration not stated)", "Potency": "inconclusive: 50.1 µM [inhibitor, partial curve]"}, {"molecule": "Clc1ccc(OCCCN2CCc3ccccc3C2)c(Br)c1", "Potency": "inconclusive: 31.6 µM [inhibitor, partial curve, poor fit]"}, {"molecule": "Cc1ccc(S(=O)(=O)N(CC(=O)Nc2cccnc2)c2ccc(Br)cc2)cc1", "Potency": "active: 22.4 µM"}, {"molecule": "COc1cccc(NS(=O)(=O)c2ccc3c(c2)[C@H]2C=CC[C@H]2[C@@H](c2ccccc2Cl)N3)c1", "Potency": "inconclusive: 50.1 µM [inhibitor, partial curve, poor fit]"}, {"molecule": "COc1ccc(/C=C(\\NC(=O)c2ccc(OCC(C)C)cc2)C(=O)OCc2ccco2)cc1", "Potency": "inconclusive: 70.8 µM [inhibitor, partial curve, poor fit]"}, {"molecule": "CCOC(=O)c1cnc(NCc2ccccc2)nc1C", "activity change, negative = inhibition": "inactive: 0%"}, {"molecule": "Cc1cccn2c(Nc3ccccc3)c(-c3cccs3)nc12", "activity change, negative = inhibition": "inactive: -7.08%"}, {"molecule": "Cc1nc2nc3ccn(CCN(C)C)c(=O)c3c(-c3ccccc3)n2n1", "activity change, negative = inhibition": "inactive: -21%"}, {"molecule": "CC(C)(C)c1ccc(-n2ncc3c2CCCC3NC(=O)c2c[nH]c(=O)[nH]c2=O)cc1", "note": "(configuration not stated)", "activity change, negative = inhibition": "inactive: 16.1%"}, {"molecule": "O=C(c1ccc2c(c1)OCO2)N1CCC2(CC1)NC(=O)N(c1ccc(F)cc1)N2", "Potency": "inconclusive: 1.78 µM [inhibitor, full curve, poor fit]"}]}]}
